# Test results taken from the supplement of paper PMC8728848.
# The list shows a part of the results.
# B1: EfCBM33A (Enterococcus faecalis), Q838S1 (protein)
# chain: MKKSLLTIVLAFSFVLGGAALAPTVSEAHGYVASPGSRAFFGSSAGGNLNTNVGRAQWEPQSIEAPKNTFITGKLASAGVSGFEPLDEQTATRWHKTNITTGPLDITWNLTAQHRTASWDYYITKNGWNPNQPLDIKNFDKIASIDGKQEVPNKVVKQTINIPTDRKGYHVIYAVWGIGDTVNAFYQAIDVNIQ
# Key:
# Test in all cases: glycan array binding signal (z-score within array); higher = stronger binding
# Details in all cases: glycan notation: IUPAC condensed, linker removed
# GalNAc(b1-4)GlcNAc = molecular target: GalNAc(b1-4)GlcNAc
# Outline: (§1)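 The binding signal is a Z-score computed within each array. Data were drawn from 3228 arrays in the Consortium for Functional Glycomics database, restricted to those with a known protein sequence. Scores were averaged over arrays of the same protein sequence at different concentrations or buffers, and over linkers, and negative values can be taken as non-binding.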
# [1] = molecular target: GalNAc(b1-4)GlcNAc(b1-2)Man
# Outline: as §1
# [2] = molecular target: GalNAc(b1-4)GlcNAc(b1-2)Man(a1-3)[GalNAc(b1-4)GlcNAc(b1-2)Man(a1-6)]Man(b1-4)GlcNAc(b1-4)GlcNAc
# Outline: as §1
# [3] = molecular target: GalNAc(b1-4)GlcNAc(b1-3)GalNAc(b1-4)GlcNAc
# Outline: as §1
# GalNAc(b1-4)GlcNAc6S = molecular target: GalNAc(b1-4)GlcNAc6S
# Outline: as §1
# GalNAc(b1-6)GalNAc = molecular target: GalNAc(b1-6)GalNAc
# Outline: as §1
# GalNAc3S(b1-4)GlcNAc = molecular target: GalNAc3S(b1-4)GlcNAc
# Outline: as §1
# GalNAc3S(b1-4)GlcNAc3S = molecular target: GalNAc3S(b1-4)GlcNAc3S
# Outline: as §1
# [4] = molecular target: GalNAc3S(b1-4)[Fuc(a1-3)]GlcNAc
# Outline: as §1
# GalNAc4S6S(b1-4)GlcNAc = molecular target: GalNAc4S6S(b1-4)GlcNAc
# Outline: as §1
# GalNAc6S(b1-4)GlcNAc = molecular target: GalNAc6S(b1-4)GlcNAc
# Outline: as §1
# Glc(a1-4)Glc = molecular target: Glc(a1-4)Glc
# Outline: as §1
# [5] = molecular target: Glc(a1-4)Glc(a1-4)Glc(a1-4)Glc
# Outline: as §1
# Glc(a1-6)Glc(a1-6)Glc = molecular target: Glc(a1-6)Glc(a1-6)Glc
# Outline: as §1
# [6] = molecular target: Glc(a1-6)Glc(a1-6)Glc(a1-6)Glc
# Outline: as §1
# Glc(b1-4)Glc = molecular target: Glc(b1-4)Glc
# Outline: as §1
# Glc(b1-6)Glc = molecular target: Glc(b1-6)Glc
# Outline: as §1
# GlcA(b1-3)Gal = molecular target: GlcA(b1-3)Gal
# Outline: as §1
# GlcA(b1-3)GlcNAc = molecular target: GlcA(b1-3)GlcNAc
# Outline: as §1
# GlcA(b1-6)Gal = molecular target: GlcA(b1-6)Gal
# Outline: as §1
# [7] = molecular target: GlcA3S(b1-3)Gal(b1-4)GlcNAc(b1-2)Man
# Outline: as §1
# [8] = molecular target: GlcA3S(b1-3)Gal(b1-4)GlcNAc(b1-3)Gal(b1-4)Glc
# Outline: as §1
# [9] = molecular target: GlcNAc(a1-3)Gal(b1-4)GlcNAc
# Outline: as §1
# [10] = molecular target: GlcNAc(a1-4)Gal(b1-3)GlcNAc
# Outline: as §1
# [11] = molecular target: GlcNAc(a1-4)Gal(b1-4)GalNAc
# Outline: as §1
# [12] = molecular target: GlcNAc(a1-4)Gal(b1-4)GlcNAc
# Outline: as §1
# [13] = molecular target: GlcNAc(a1-4)Gal(b1-4)GlcNAc(b1-3)Gal(b1-4)Glc
# Outline: as §1
# [14] = molecular target: GlcNAc(a1-4)Gal(b1-4)GlcNAc(b1-3)Gal(b1-4)GlcNAc
# Outline: as §1
# [15] = molecular target: GlcNAc(a1-4)Gal(b1-4)GlcNAc(b1-3)Gal(b1-4)GlcNAc(b1-3)Gal(b1-4)GlcNAc
# Outline: as §1
# [16] = molecular target: GlcNAc(a1-4)Gal(b1-4)GlcNAc(b1-3)Gal(b1-4)[Fuc(a1-3)]GlcNAc(b1-3)Gal(b1-4)[Fuc(a1-3)]GlcNAc
# Outline: as §1
# [17] = molecular target: GlcNAc(a1-6)Gal(b1-4)GlcNAc
# Outline: as §1
# [18] = molecular target: GlcNAc(b1-2)Gal(b1-3)GalNAc
# Outline: as §1
# [19] = molecular target: GlcNAc(b1-2)Man(a1-3)[GlcNAc(b1-2)Man(a1-6)]Man(b1-4)GlcNAc(b1-4)GlcNAc
# Outline: as §1
# [20] = molecular target: GlcNAc(b1-2)Man(a1-3)[GlcNAc(b1-2)Man(a1-6)]Man(b1-4)GlcNAc(b1-4)[Fuc(a1-6)]GlcNAc
# Outline: as §1
# [21] = molecular target: GlcNAc(b1-2)Man(a1-3)[GlcNAc(b1-4)][GlcNAc(b1-2)Man(a1-6)]Man(b1-4)GlcNAc(b1-4)GlcNAc
# Outline: as §1
# [22] = molecular target: GlcNAc(b1-2)Man(a1-3)[GlcNAc(b1-4)][GlcNAc(b1-2)Man(a1-6)]Man(b1-4)GlcNAc(b1-4)[Fuc(a1-6)]GlcNAc
# Outline: as §1
# [23] = molecular target: GlcNAc(b1-2)[GlcNAc(b1-4)]Man(a1-3)[GlcNAc(b1-2)Man(a1-6)]Man(b1-4)GlcNAc(b1-4)GlcNAc
# Outline: as §1
# [24] = molecular target: GlcNAc(b1-2)[GlcNAc(b1-4)]Man(a1-3)[GlcNAc(b1-4)][GlcNAc(b1-2)Man(a1-6)]Man(b1-4)GlcNAc(b1-4)GlcNAc
# Outline: as §1
# [25] = molecular target: GlcNAc(b1-2)[GlcNAc(b1-4)]Man(a1-3)[GlcNAc(b1-4)][GlcNAc(b1-2)[GlcNAc(b1-6)]Man(a1-6)]Man(b1-4)GlcNAc(b1-4)GlcNAc
# Outline: as §1
# [26] = molecular target: GlcNAc(b1-2)[GlcNAc(b1-4)]Man(a1-3)[GlcNAc(b1-4)][GlcNAc(b1-2)[GlcNAc(b1-6)]Man(a1-6)]Man(b1-4)GlcNAc(b1-4)[Fuc(a1-6)]GlcNAc
# Outline: as §1
# [27] = molecular target: GlcNAc(b1-2)[GlcNAc(b1-6)]Man(a1-6)[GlcNAc(b1-2)Man(a1-3)]Man(b1-4)GlcNAc(b1-4)GlcNAc
# Outline: as §1
# [28] = molecular target: GlcNAc(b1-2)[GlcNAc(b1-6)]Man(a1-6)[GlcNAc(b1-2)Man(a1-3)]Man(b1-4)GlcNAc(b1-4)[Fuc(a1-6)]GlcNAc
# Outline: as §1
# [29] = molecular target: GlcNAc(b1-2)[GlcNAc(b1-6)]Man(a1-6)[GlcNAc(b1-4)][GlcNAc(b1-2)Man(a1-3)]Man(b1-4)GlcNAc(b1-4)GlcNAc
# Outline: as §1
# GlcNAc(b1-3)Fuc = molecular target: GlcNAc(b1-3)Fuc
# Outline: as §1
# GlcNAc(b1-3)Gal = molecular target: GlcNAc(b1-3)Gal
# Outline: as §1
binder,measurement,setting,value
B1,glycan array binding signal (z-score),GalNAc(b1-4)GlcNAc,1.05
same,glycan array binding signal (z-score),[1],-0.337
same,glycan array binding signal (z-score),[2],3.54
same,glycan array binding signal (z-score),[3],0.685
same,glycan array binding signal (z-score),GalNAc(b1-4)GlcNAc6S,-0.288
same,glycan array binding signal (z-score),GalNAc(b1-6)GalNAc,-1.4
same,glycan array binding signal (z-score),GalNAc3S(b1-4)GlcNAc,-0.598
same,glycan array binding signal (z-score),GalNAc3S(b1-4)GlcNAc3S,0.074
same,glycan array binding signal (z-score),[4],-0.046
same,glycan array binding signal (z-score),GalNAc4S6S(b1-4)GlcNAc,-0.781
same,glycan array binding signal (z-score),GalNAc6S(b1-4)GlcNAc,1.04
same,glycan array binding signal (z-score),Glc(a1-4)Glc,0.612
same,glycan array binding signal (z-score),[5],0.247
same,glycan array binding signal (z-score),Glc(a1-6)Glc(a1-6)Glc,0.821
same,glycan array binding signal (z-score),[6],0.158
same,glycan array binding signal (z-score),Glc(b1-4)Glc,0.442
same,glycan array binding signal (z-score),Glc(b1-6)Glc,-0.404
same,glycan array binding signal (z-score),GlcA(b1-3)Gal,-0.26
same,glycan array binding signal (z-score),GlcA(b1-3)GlcNAc,-0.694
same,glycan array binding signal (z-score),GlcA(b1-6)Gal,0.419
same,glycan array binding signal (z-score),[7],1.24
same,glycan array binding signal (z-score),[8],-0.507
same,glycan array binding signal (z-score),[9],-0.699
same,glycan array binding signal (z-score),[10],-0.301
same,glycan array binding signal (z-score),[11],-1.44
same,glycan array binding signal (z-score),[12],0.391
same,glycan array binding signal (z-score),[13],-0.81
same,glycan array binding signal (z-score),[14],-0.409
same,glycan array binding signal (z-score),[15],-0.298
same,glycan array binding signal (z-score),[16],-0.134
same,glycan array binding signal (z-score),[17],0.346
same,glycan array binding signal (z-score),[18],-0.504
same,glycan array binding signal (z-score),[19],-0.209
same,glycan array binding signal (z-score),[20],-0.746
same,glycan array binding signal (z-score),[21],-0.009
same,glycan array binding signal (z-score),[22],-0.554
same,glycan array binding signal (z-score),[23],0.123
same,glycan array binding signal (z-score),[24],0.065
same,glycan array binding signal (z-score),[25],-0.059
same,glycan array binding signal (z-score),[26],-0.154
same,glycan array binding signal (z-score),[27],-0.321
same,glycan array binding signal (z-score),[28],0.471
same,glycan array binding signal (z-score),[29],-0.977
same,glycan array binding signal (z-score),GlcNAc(b1-3)Fuc,0.31
same,glycan array binding signal (z-score),GlcNAc(b1-3)Gal,0.149

# Reprinted from the entries so far (3 entries):
binder,measurement,setting,value
B1,glycan array binding signal (z-score),[1],-0.337
same,glycan array binding signal (z-score),[2],3.54
same,glycan array binding signal (z-score),[3],0.685
